Results reported in article PMC7199855, “GRAF2, WDR44, and MICAL1 mediate Rab8/10/11–dependent export of E-cadherin, MMP14, and CFTR ΔF508” (The Journal of Cell Biology, 2020).
These are yes or no findings as the source states them, for the method shown. Binding seen in cells or lysates may run through a third protein. Some binding calls cover weakened binding; strength is not graded here. For part of these data: Tags and fused reporters may be left off the sequences shown.

T1: endogenous GRAF2 (human cells) (human (endogenous in HeLa and SH-SY5Y)) (UniProt A1A4S6)
T1 sequence: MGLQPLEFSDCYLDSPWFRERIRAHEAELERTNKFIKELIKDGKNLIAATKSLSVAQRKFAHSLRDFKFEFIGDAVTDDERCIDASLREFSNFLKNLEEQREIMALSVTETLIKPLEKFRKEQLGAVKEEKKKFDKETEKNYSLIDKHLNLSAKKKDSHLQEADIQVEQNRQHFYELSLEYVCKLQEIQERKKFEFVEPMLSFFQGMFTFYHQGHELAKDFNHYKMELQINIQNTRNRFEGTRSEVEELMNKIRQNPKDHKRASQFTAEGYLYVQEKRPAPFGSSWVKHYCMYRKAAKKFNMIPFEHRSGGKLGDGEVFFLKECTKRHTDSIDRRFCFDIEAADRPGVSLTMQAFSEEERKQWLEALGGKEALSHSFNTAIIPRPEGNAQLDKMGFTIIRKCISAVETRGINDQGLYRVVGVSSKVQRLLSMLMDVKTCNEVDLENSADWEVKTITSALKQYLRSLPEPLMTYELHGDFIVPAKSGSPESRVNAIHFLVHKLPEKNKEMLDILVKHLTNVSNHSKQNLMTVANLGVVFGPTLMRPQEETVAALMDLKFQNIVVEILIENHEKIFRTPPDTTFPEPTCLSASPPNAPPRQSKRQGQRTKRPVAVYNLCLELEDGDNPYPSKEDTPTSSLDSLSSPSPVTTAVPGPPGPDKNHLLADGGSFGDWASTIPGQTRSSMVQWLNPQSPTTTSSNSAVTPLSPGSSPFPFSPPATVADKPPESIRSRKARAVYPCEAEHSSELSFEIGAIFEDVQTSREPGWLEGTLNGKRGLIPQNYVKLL

T2: GST–GRAF2 SH3 (human) (UniProt A1A4S6)
T2 sequence: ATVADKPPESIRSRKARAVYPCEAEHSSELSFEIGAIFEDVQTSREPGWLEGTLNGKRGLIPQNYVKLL

T3: GST–GRAF1 SH3 (human) (UniProt Q9UNA1)
T3 sequence: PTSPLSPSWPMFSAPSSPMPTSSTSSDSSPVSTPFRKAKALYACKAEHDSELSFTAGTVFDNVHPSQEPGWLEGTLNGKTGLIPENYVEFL

T4: endogenous WDR44 (HeLa) (human (endogenous in HeLa)) (UniProt Q5JSH3)
T4 sequence: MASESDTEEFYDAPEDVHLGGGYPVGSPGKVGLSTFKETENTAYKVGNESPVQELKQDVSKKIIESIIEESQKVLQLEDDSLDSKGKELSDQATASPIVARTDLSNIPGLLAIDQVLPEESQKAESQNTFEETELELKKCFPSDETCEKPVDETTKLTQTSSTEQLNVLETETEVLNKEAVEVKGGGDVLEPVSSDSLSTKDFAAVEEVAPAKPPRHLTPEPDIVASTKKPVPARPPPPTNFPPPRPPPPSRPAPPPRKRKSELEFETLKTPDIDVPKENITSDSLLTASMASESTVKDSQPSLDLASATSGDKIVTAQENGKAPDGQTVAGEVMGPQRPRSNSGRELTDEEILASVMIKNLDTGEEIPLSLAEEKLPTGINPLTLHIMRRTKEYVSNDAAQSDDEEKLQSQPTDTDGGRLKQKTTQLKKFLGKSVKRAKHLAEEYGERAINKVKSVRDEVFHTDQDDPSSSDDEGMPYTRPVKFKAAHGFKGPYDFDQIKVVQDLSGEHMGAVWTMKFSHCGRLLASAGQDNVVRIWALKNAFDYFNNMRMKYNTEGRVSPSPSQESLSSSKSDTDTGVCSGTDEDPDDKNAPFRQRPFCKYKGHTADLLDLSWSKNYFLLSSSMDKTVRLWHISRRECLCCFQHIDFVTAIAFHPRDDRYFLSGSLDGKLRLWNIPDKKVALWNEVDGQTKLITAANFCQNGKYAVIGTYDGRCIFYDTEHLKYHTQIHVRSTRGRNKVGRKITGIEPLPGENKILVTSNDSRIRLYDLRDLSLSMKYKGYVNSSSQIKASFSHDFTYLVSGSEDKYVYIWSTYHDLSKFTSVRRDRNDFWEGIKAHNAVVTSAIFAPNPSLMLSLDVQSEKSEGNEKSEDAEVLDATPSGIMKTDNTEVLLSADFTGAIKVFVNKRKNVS


How the values were obtained:
[1] = target: T1, endogenous GRAF2 (human cells) (human (endogenous in HeLa and SH-SY5Y)); assay: co-IP; endogenous proteins, HeLa; resuspended pellet of a 1% Triton X-100 lysate (20 mM Hepes pH 7.4, 150 mM NaCl, 2 mM EDTA); IP with α-GRAF2 or α-WDR44; Western blot
GST–GRAF2 SH3 (human) = target: T2, GST–GRAF2 SH3 (human); assay: pull-down; GST-SH3 on glutathione sepharose beads with HeLa lysate, 30 min 4°C; 20 mM Hepes pH 7.4, 150 mM NaCl, 2 mM EDTA, 1% IGEPAL CA-630, 1 mM DTT; Western blot with α-WDR44 or α-MICAL1; only the target purified
GST–GRAF1 SH3 (human) = target: T3, GST–GRAF1 SH3 (human); assay: as above
[2] = target: T1, endogenous GRAF2 (human cells) (human (endogenous in HeLa and SH-SY5Y)); assay: co-IP; endogenous proteins, SH-SY5Y lysate (20 mM Hepes pH 7.4, 150 mM NaCl, 2 mM EDTA, 1% IGEPAL CA-630); IP with α-GRAF2; Western blot
[3] = target: T4, endogenous WDR44 (HeLa) (human (endogenous in HeLa)); assay: co-IP; endogenous proteins, HeLa; resuspended pellet of a 1% Triton X-100 lysate (20 mM Hepes pH 7.4, 150 mM NaCl, 2 mM EDTA); IP with α-GRAF2 or α-WDR44; Western blot

| binding [1] | binding (GST–GRAF2 SH3 (human)) | binding (GST–GRAF1 SH3 (human)) | binding [2] | binding [3] | Binder |
| --- | --- | --- | --- | --- | --- |
| binds | binds | binds | – | – | endogenous WDR44 (HeLa) (protein, UniProt Q5JSH3 1-913) MASESDTEEFYDAPEDVHLGGGYPVGSPGKVGLSTFKETENTAYKVGNESPVQELKQDVSKKIIESIIEESQKVLQLEDDSLDSKGKELSDQATASPIVARTDLSNIPGLLAIDQVLPEESQKAESQNTFEETELELKKCFPSDETCEKPVDETTKLTQTSSTEQLNVLETETEVLNKEAVEVKGGGDVLEPVSSDSLSTKDFAAVEEVAPAKPPRHLTPEPDIVASTKKPVPARPPPPTNFPPPRPPPPSRPAPPPRKRKSELEFETLKTPDIDVPKENITSDSLLTASMASESTVKDSQPSLDLASATSGDKIVTAQENGKAPDGQTVAGEVMGPQRPRSNSGRELTDEEILASVMIKNLDTGEEIPLSLAEEKLPTGINPLTLHIMRRTKEYVSNDAAQSDDEEKLQSQPTDTDGGRLKQKTTQLKKFLGKSVKRAKHLAEEYGERAINKVKSVRDEVFHTDQDDPSSSDDEGMPYTRPVKFKAAHGFKGPYDFDQIKVVQDLSGEHMGAVWTMKFSHCGRLLASAGQDNVVRIWALKNAFDYFNNMRMKYNTEGRVSPSPSQESLSSSKSDTDTGVCSGTDEDPDDKNAPFRQRPFCKYKGHTADLLDLSWSKNYFLLSSSMDKTVRLWHISRRECLCCFQHIDFVTAIAFHPRDDRYFLSGSLDGKLRLWNIPDKKVALWNEVDGQTKLITAANFCQNGKYAVIGTYDGRCIFYDTEHLKYHTQIHVRSTRGRNKVGRKITGIEPLPGENKILVTSNDSRIRLYDLRDLSLSMKYKGYVNSSSQIKASFSHDFTYLVSGSEDKYVYIWSTYHDLSKFTSVRRDRNDFWEGIKAHNAVVTSAIFAPNPSLMLSLDVQSEKSEGNEKSEDAEVLDATPSGIMKTDNTEVLLSADFTGAIKVFVNKRKNVS |
| – | – | binds | binds | – | endogenous MICAL1 (human cells) (protein, UniProt Q8TDZ2 1-1067) MASPTSTNPAHAHFESFLQAQLCQDVLSSFQELCGALGLEPGGGLPQYHKIKDQLNYWSAKSLWTKLDKRAGQPVYQQGRACTSTKCLVVGAGPCGLRVAVELALLGARVVLVEKRTKFSRHNVLHLWPFTIHDLRALGAKKFYGRFCTGTLDHISIRQLQLLLLKVALLLGVEIHWGVTFTGLQPPPRKGSGWRAQLQPNPPAQLANYEFDVLISAAGGKFVPEGFKVREMRGKLAIGITANFVNGRTVEETQVPEISGVARIYNQSFFQSLLKATGIDLENIVYYKDDTHYFVMTAKKQCLLRLGVLRQDWPDTNRLLGSANVVPEALQRFTRAAADFATHGKLGKLEFAQDAHGQPDVSAFDFTSMMRAESSARVQEKHGARLLLGLVGDCLVEPFWPLGTGVARGFLAAFDAAWMVKRWAEGAESLEVLAERESLYQLLSQTSPENMHRNVAQYGLDPATRYPNLNLRAVTPNQVRDLYDVLAKEPVQRNNDKTDTGMPATGSAGTQEELLRWCQEQTAGYPGVHVSDLSSSWADGLALCALVYRLQPGLLEPSELQGLGALEATAWALKVAENELGITPVVSAQAVVAGSDPLGLIAYLSHFHSAFKSMAHSPGPVSQASPGTSSAVLFLSKLQRTLQRSRAKENAEDAGGKKLRLEMEAETPSTEVPPDPEPGVPLTPPSQHQEAGAGDLCALCGEHLYVLERLCVNGHFFHRSCFRCHTCEATLWPGGYEQHPGDGHFYCLQHLPQTDHKAEGSDRGPESPELPTPSENSMPPGLSTPTASQEGAGPVPDPSQPTRRQIRLSSPERQRLSSLNLTPDPEMEPPPKPPRSCSALARHALESSFVGWGLPVQSPQALVAMEKEEKESPFSSEEEEEDVPLDSDVEQALQTFAKTSGTMNNYPTWRRTLLRRAKEEEMKRFCKAQTIQRRLNEIEAALRELEAEGVKLELALRRQSSSPEQQKKLWVGQLLQLVDKKNSLVAEEAELMITVQELNLEEKQWQLDQELRGYMNREENLKTAADRQAEDQVLRKLVDLVNQRDALIRFQEERRLSELALGTGAQG |
| – | – | – | – | binds | endogenous GRAF2 (human cells) (protein, UniProt A1A4S6 1-786) MGLQPLEFSDCYLDSPWFRERIRAHEAELERTNKFIKELIKDGKNLIAATKSLSVAQRKFAHSLRDFKFEFIGDAVTDDERCIDASLREFSNFLKNLEEQREIMALSVTETLIKPLEKFRKEQLGAVKEEKKKFDKETEKNYSLIDKHLNLSAKKKDSHLQEADIQVEQNRQHFYELSLEYVCKLQEIQERKKFEFVEPMLSFFQGMFTFYHQGHELAKDFNHYKMELQINIQNTRNRFEGTRSEVEELMNKIRQNPKDHKRASQFTAEGYLYVQEKRPAPFGSSWVKHYCMYRKAAKKFNMIPFEHRSGGKLGDGEVFFLKECTKRHTDSIDRRFCFDIEAADRPGVSLTMQAFSEEERKQWLEALGGKEALSHSFNTAIIPRPEGNAQLDKMGFTIIRKCISAVETRGINDQGLYRVVGVSSKVQRLLSMLMDVKTCNEVDLENSADWEVKTITSALKQYLRSLPEPLMTYELHGDFIVPAKSGSPESRVNAIHFLVHKLPEKNKEMLDILVKHLTNVSNHSKQNLMTVANLGVVFGPTLMRPQEETVAALMDLKFQNIVVEILIENHEKIFRTPPDTTFPEPTCLSASPPNAPPRQSKRQGQRTKRPVAVYNLCLELEDGDNPYPSKEDTPTSSLDSLSSPSPVTTAVPGPPGPDKNHLLADGGSFGDWASTIPGQTRSSMVQWLNPQSPTTTSSNSAVTPLSPGSSPFPFSPPATVADKPPESIRSRKARAVYPCEAEHSSELSFEIGAIFEDVQTSREPGWLEGTLNGKRGLIPQNYVKLL |
